From the supplement of paper PMC7666118
The other results are listed elsewhere or left out.

By UniProt entry, the sequences of proteins in these tests, tags left out. Where a name states a change or a piece, a line headed by the entry shows the natural chain unless it says otherwise.
UniProt P57081: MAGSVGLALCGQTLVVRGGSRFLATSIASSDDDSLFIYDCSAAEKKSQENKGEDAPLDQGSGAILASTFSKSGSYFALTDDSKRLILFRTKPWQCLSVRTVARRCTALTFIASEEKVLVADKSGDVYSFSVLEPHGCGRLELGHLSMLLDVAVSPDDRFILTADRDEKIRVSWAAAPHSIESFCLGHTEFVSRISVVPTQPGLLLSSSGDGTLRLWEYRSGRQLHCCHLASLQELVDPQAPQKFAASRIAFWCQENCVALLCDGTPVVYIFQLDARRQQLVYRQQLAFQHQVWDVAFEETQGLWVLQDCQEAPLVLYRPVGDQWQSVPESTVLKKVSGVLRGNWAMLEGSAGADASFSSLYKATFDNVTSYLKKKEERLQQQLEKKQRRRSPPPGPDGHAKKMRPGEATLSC
UniProt O96006: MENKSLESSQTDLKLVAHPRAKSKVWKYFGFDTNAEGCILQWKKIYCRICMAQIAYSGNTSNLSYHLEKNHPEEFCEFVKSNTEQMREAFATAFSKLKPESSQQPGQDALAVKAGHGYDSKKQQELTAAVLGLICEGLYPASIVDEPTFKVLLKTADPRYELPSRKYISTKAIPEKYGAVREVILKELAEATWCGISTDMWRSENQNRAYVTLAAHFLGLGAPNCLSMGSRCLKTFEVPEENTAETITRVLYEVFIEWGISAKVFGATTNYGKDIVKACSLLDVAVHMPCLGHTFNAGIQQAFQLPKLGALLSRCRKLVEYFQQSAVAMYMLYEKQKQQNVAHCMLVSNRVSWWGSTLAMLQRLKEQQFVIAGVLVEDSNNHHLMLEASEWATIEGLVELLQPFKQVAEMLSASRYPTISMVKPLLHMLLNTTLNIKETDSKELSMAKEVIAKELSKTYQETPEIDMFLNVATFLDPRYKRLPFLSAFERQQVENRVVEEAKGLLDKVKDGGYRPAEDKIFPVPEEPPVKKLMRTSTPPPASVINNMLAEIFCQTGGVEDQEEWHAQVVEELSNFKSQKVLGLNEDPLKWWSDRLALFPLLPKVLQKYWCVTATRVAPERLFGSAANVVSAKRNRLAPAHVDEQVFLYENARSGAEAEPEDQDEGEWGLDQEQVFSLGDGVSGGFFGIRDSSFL
UniProt Q9UEU0: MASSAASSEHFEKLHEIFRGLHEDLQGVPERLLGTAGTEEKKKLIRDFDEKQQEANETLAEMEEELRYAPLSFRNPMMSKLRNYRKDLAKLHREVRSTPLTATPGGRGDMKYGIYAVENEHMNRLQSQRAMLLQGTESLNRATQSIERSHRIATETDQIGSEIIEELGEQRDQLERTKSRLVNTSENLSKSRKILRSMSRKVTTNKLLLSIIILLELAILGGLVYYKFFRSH
UniProt Q6PJT7: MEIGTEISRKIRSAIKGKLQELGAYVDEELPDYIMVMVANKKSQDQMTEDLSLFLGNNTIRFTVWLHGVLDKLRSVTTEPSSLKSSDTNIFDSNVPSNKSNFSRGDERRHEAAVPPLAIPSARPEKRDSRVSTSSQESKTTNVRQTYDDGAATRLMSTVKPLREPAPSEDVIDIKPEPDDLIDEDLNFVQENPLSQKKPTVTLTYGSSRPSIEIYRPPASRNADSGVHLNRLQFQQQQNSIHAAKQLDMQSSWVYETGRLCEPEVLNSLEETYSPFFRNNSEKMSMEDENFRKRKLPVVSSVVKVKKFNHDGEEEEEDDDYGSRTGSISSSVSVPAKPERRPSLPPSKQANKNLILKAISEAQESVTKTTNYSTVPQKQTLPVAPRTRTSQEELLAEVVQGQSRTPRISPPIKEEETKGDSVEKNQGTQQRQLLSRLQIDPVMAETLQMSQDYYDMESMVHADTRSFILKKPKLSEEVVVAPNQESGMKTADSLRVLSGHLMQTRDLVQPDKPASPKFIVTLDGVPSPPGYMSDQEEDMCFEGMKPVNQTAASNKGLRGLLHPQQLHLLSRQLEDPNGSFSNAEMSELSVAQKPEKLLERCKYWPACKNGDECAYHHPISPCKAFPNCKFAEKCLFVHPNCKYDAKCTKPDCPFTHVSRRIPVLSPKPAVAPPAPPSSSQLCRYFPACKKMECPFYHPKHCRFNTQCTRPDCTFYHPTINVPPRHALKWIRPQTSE
UniProt Q08AM6: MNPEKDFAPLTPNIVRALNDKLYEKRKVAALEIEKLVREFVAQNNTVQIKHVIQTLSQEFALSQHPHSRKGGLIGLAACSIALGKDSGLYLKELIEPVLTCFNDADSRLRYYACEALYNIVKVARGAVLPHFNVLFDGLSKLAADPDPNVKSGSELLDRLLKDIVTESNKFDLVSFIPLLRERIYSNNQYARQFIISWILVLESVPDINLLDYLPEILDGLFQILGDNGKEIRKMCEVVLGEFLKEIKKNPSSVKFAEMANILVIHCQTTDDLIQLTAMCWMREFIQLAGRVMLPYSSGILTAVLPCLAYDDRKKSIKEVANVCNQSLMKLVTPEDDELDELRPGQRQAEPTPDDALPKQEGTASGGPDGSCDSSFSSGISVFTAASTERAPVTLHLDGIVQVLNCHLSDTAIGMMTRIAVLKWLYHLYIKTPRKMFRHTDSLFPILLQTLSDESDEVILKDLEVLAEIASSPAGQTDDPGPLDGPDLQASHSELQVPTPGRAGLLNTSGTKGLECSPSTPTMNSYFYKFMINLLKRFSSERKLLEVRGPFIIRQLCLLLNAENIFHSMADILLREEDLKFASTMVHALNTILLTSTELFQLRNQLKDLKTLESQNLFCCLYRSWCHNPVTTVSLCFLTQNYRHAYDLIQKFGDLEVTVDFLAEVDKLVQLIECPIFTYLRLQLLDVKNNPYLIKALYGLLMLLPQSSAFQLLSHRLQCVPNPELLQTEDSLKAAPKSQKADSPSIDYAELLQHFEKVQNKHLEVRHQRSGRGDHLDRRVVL
UniProt Q9BV38: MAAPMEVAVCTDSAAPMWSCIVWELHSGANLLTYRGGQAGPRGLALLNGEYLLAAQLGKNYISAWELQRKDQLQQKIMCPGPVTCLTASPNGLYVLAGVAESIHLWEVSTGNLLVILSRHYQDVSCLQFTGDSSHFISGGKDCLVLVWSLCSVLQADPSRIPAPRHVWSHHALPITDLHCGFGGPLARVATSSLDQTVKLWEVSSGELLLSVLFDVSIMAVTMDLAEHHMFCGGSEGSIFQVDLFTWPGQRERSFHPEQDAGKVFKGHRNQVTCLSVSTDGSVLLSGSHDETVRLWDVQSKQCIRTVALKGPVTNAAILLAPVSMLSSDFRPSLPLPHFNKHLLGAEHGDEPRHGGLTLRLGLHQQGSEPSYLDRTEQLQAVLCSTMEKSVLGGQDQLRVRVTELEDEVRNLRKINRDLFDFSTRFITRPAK
UniProt P08670, whole entry: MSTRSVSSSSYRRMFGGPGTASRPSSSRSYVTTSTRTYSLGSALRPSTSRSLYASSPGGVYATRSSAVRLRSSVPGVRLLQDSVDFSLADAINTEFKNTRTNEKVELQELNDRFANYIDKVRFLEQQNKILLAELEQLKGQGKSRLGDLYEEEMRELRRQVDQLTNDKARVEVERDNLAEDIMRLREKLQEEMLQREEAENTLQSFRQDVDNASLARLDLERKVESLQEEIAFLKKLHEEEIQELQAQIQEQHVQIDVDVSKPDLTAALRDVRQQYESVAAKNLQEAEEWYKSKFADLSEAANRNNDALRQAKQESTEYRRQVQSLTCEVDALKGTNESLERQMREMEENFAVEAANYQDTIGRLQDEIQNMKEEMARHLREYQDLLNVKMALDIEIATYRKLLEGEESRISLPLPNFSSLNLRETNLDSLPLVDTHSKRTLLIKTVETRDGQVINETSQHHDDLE
UniProt Q96NC0: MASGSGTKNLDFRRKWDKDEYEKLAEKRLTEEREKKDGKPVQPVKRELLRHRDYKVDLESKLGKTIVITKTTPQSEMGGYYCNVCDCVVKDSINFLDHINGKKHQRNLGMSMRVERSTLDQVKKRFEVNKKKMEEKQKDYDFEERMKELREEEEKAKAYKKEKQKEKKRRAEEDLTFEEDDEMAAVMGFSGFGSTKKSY
UniProt Q96MX6, whole entry: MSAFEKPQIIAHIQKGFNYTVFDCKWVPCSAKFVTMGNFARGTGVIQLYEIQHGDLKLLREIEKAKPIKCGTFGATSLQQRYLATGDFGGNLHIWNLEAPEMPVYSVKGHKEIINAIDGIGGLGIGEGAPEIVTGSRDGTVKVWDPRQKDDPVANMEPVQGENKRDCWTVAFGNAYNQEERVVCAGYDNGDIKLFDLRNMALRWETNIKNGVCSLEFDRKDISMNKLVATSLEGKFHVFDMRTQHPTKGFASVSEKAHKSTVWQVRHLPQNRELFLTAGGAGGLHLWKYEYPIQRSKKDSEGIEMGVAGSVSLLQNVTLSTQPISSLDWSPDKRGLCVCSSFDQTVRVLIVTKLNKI
UniProt Q96P53: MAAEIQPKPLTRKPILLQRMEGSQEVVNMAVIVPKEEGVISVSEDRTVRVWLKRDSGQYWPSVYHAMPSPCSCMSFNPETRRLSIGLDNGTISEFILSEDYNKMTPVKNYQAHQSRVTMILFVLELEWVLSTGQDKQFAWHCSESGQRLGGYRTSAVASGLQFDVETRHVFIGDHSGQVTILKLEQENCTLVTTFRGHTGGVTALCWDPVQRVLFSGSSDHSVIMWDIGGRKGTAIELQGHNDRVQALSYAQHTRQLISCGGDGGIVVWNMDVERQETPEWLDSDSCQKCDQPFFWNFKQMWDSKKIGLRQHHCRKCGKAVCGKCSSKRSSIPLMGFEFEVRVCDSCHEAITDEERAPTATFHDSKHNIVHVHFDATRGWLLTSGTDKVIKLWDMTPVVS
UniProt P12956: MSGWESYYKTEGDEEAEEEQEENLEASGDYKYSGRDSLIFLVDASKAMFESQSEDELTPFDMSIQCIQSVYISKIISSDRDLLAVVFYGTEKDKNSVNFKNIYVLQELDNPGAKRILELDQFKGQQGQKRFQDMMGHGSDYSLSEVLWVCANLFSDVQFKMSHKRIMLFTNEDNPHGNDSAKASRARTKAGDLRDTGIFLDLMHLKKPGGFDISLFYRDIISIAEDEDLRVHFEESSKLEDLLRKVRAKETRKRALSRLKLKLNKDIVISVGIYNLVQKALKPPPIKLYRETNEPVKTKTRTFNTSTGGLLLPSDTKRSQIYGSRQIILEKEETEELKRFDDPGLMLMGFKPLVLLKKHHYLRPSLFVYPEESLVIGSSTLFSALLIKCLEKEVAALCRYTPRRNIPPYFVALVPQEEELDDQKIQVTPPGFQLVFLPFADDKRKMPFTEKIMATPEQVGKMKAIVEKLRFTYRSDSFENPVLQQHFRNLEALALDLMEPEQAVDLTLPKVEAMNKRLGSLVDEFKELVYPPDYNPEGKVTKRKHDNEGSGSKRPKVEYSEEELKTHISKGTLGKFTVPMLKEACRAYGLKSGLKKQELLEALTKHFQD
UniProt P13010: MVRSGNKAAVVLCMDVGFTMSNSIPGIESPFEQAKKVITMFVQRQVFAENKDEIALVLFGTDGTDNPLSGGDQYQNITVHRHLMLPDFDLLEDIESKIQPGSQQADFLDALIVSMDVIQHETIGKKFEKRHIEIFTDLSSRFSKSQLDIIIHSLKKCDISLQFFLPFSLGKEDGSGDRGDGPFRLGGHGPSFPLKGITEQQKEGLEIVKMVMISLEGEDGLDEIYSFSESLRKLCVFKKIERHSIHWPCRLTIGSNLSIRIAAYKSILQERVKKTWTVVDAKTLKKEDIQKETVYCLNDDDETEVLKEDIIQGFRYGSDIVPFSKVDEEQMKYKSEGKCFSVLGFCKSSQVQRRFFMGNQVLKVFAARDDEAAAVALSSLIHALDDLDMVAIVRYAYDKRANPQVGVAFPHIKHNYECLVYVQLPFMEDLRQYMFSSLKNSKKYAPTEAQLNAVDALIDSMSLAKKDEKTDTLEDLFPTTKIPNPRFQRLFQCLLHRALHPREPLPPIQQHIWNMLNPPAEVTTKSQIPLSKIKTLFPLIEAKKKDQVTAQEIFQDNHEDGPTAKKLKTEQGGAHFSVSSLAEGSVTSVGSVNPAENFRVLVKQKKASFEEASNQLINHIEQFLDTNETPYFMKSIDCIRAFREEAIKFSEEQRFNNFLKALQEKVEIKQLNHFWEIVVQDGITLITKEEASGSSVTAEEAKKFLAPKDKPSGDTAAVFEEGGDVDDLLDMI
UniProt Q8WU90: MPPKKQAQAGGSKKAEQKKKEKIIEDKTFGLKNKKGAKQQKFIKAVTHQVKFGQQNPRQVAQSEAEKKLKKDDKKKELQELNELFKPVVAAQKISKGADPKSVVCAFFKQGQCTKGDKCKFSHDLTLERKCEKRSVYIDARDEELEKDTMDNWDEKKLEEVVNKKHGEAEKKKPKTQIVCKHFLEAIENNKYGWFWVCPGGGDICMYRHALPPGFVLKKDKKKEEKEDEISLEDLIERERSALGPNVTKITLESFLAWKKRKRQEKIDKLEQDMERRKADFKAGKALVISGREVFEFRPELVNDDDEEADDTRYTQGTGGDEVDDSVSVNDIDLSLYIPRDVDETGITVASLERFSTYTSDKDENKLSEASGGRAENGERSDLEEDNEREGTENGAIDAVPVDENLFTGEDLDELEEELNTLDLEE

Each target was assayed with COc1ccc(Cn2ccc3ccc(C(=O)NO)cc32)cc1 (assay: dose-dependent thermal stabilisation call (2D-TPP, DLPTP, 10% FDR) (binary (1 = stabilised)); higher = stabilised by the compound). Conditions: system: HL-60 intact cells; concentration range 0.04-10 µM.

Target | dose-dependent thermal stabilisation call
WDR4 (UniProt P57081) | inactive: 0
WDR89 (UniProt Q96FK6) | inactive: 0
WDR32 (UniProt Q5QP82) | inactive: 0
ZBED1 (UniProt O96006) | inactive: 0
WBSCR22 (UniProt O43709) | inactive: 0
XTP3TPA (UniProt Q9H773) | inactive: 0
YWHAB (UniProt P31946) | inactive: 0
VTI1B (UniProt Q9UEU0) | inactive: 0
ZC3H14 (UniProt Q6PJT7) | inactive: 0
VANGL1 (UniProt Q8TAA9) | inactive: 0
VAC14 (UniProt Q08AM6) | inactive: 0
VPS35 (UniProt Q96QK1) | inactive: 0
WDR18 (UniProt Q9BV38) | inactive: 0
WDR48 (UniProt Q8TAF3) | inactive: 0
ZMPSTE24 (UniProt O75844) | inactive: 0
VIM (UniProt P08670) | inactive: 0
ZFYVE1 (UniProt Q9HBF4) | inactive: 0
ZC3H4 (UniProt Q9UPT8) | inactive: 0
ZMAT2 (UniProt Q96NC0) | inactive: 0

Target | dose-dependent thermal stabilisation call
WDR92 (UniProt Q96MX6) | inactive: 0
WDR75 (UniProt Q8IWA0) | inactive: 0
WDFY2 (UniProt Q96P53) | inactive: 0
XRCC6 (UniProt P12956) | inactive: 0
ZFAND1 (UniProt Q8TCF1) | inactive: 0
VASP (UniProt P50552) | inactive: 0
XRCC5 (UniProt P13010) | inactive: 0
ZC3H8 (UniProt Q8N5P1) | inactive: 0
WRNIP1 (UniProt Q96S55) | inactive: 0
WDR37 (UniProt Q9Y2I8) | inactive: 0
VEZT (UniProt Q9HBM0) | inactive: 0
YOD1 (UniProt Q5VVQ6) | inactive: 0
ZC3H15 (UniProt Q8WU90) | inactive: 0
ZFAND6 (UniProt Q6FIF0) | inactive: 0
ZC3HC1 (UniProt Q86WB0) | inactive: 0
WAC (UniProt Q9BTA9) | inactive: 0
XRCC2 (UniProt O43543) | inactive: 0
VPS4A (UniProt Q9UN37) | inactive: 0

In another format: entries from further up.

| Target | dose-dependent thermal stabilisation call |
| --- | --- |
| ZC3HC1 (UniProt Q86WB0) | inactive: 0 |
| WAC (UniProt Q9BTA9) | inactive: 0 |
